Test results as given in article PMC6093649.
These are yes or no findings as the source states them, for the method shown. Some binding calls cover weakened binding; strength is not graded here. Tags and fused reporters may be left off the sequences shown.

Target: FLAG-tagged Chp2 (F-Chp2) expressed from the endogenous chp2+ locus (S. pombe) (UniProt O42934)
Assay: SEC; native whole-cell lysate of S. pombe on HiLoad 16/600 Superdex 200 (50 mM Tris-HCl pH 7.5, 150 mM NaCl, 0.05% Tween 20, 2 mM DTT, 4°C); fractions analysed by western blotting

binding: binds
B1: FLAG-tagged Chp2 (F-Chp2) expressed from the endogenous chp2+ locus (protein, UniProt O42934 1-380)
chain: MVKSADLDLMNSIISESDENFSPPPFTVEEAENSINNKSSTASLESPQNGSWHPSLYGLSVPEKTHIQNSLDLYSHGNSGSQKTHNVSFSCEIRKVKSSKLSPISNMEDSEDKKEEDESSSYKNEFKSSSSASVSSNFEKTSGSDDHNSQSPVPLNEGFEYIASSGSEDKNSDEEFAVEMILDSRMKKDGSGFQYYLKWEGYDDPSDNTWNDEEDCAGCLELIDAYWESRGGKPDLSSLIRLTRSRARSSNEASYVEKDESSNSDDSISYKRRRSRNAANRITDYVDSDLSESSMKEKQSKIEKYMKSDKSSKNFKPPFQKKSWEDLVDCVKTVQQLDNGKLIAKIKWKNGYVSTHDNIIIHQKCPLKIIEYYEAHIKFT
